Our source for the binding values is EP1257648B2 (AMGEN INC., dated 2016).

These are yes or no findings as the source states them, for the method shown. Some entries that bind do so weakly or less than the wild type.

This test addresses T1, human OPGbp[143-317] (human, UniProt O14788 143-317).
T1 sequence (looked up): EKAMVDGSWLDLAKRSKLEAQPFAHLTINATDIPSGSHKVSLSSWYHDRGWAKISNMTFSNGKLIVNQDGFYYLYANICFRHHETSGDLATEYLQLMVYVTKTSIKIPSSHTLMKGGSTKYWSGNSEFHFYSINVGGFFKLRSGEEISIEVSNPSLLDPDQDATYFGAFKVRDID
The test can be described thus: phage ELISA on plated OPGbp[143-317]. (In general: ELISA stands for enzyme-linked immunosorbent assay.)

B1: Fab "S" (Fab, V domains shown)
VH: EVQLLESGGGLVQPGRSLRLSCAASGFTFDDYAMHWVRQAPGKGLEWVSGISWNSGRIGYADSVKGRFTISRDNAKNSLYLQMNSLRPEDTAFYYCAKGGSTSARYSSGWYYWGQGTLVTVSS
VL: QSVLTQPPSVSVSPGQTATITCSGDALPKQYVYWYRQKPGQAPLLVIYEDSERPSGIPERFSGSSSGTEVTLSISGVQAEDEADYYCQSTDSSGTYVVFGGGTKLTVLS
For the molecule B1, the binding entry is “binds”.
